system: HepG2 cells; experiment: Cytotoxicity in HepG2 cells (intracellular ATP, ATPlite, 48 h); assay type: cell-based, human; conditions: selectivity ratio HepG2 vs Pf gametocytes

Row | Structure (SMILES) | Ratio IC50 HepG2/IC50 Pf gametocytes
1 | Cn1nc(C(F)(F)F)c(-c2ccc(Br)cc2)c1NC(=O)Cc1ccccc1F [TCMDC-123792] | >14
2 | COc1cc2nc(N3CCN(c4nc(N)c5cc(OC)c(OC)cc5n4)CC3)nc(N)c2cc1OC [TCMDC-123865] | >96
3 | O=C(Nc1nc(-c2ccccn2)cc2ccccc12)c1cccc(Cl)c1 [TCMDC-123886] | >50
4 | C=CCN(C(=O)c1ccc(Cl)c([N+](=O)[O-])c1)c1nc(-c2ccccc2)cs1 [TCMDC-124436] | >237
5 | Cc1cc(Nc2ccncc2)n2nc(C)c(-c3ccc(Cl)cc3)c2n1 [TCMDC-124478] | >55
6 | Cc1sc2ncnc(Sc3nnc(N)s3)c2c1C [TCMDC-124542] | >83
7 | Cc1ccc(C)c(CC(=O)N2CCC(n3c(C)nc4ccc(F)cc43)CC2)c1 [TCMDC-124790] | >27
8 | COc1cccc(CC(=O)N2CCC(n3c(C)nc4ccc(C)cc43)CC2)c1 [TCMDC-124791] | >53
9 | O=C(c1ccc([N+](=O)[O-])o1)N1CCC(Cc2ccc(C(F)(F)F)cc2)CC1 [TCMDC-124805] | 55
10 | CCc1nn2c(Nc3ccncc3)cc(C)nc2c1-c1ccccc1 [TCMDC-124917] | >13
11 | Cc1cc(Nc2ccncc2)n2nc(C)c(-c3ccccc3Cl)c2n1 [TCMDC-124918] | >13
12 | CCOc1ccc2nc3cc(NC(=O)c4ccco4)ccc3c(N)c2c1 [TCMDC-125004] | 56
13 | Cc1[nH]c2ccccc2c1C(=O)C(C)Sc1nnc(-c2ccccc2Br)[nH]1 (centres unmarked) [TCMDC-125114] | 74
14 | COc1cccc(NC(=O)[C@H](C(C)C)n2c(=O)[nH]c3ccccc3c2=O)c1 [TCMDC-125133] | >93
15 | COc1ccc(NC(=O)C2c3ccccc3C(=O)N(CC(C)C)C2c2cccs2)cc1OC (centres unmarked) [TCMDC-125289] | >58
16 | CC(C)c1ccc(NC(=S)NN=Cc2ccccn2)cc1 [TCMDC-125520] | >1306
17 | Fc1ccc(NC(=S)NN=Cc2ccccn2)cc1 [TCMDC-125521] | 195
18 | c1ccc2sc(Sc3ncnc4sccc34)nc2c1 [TCMDC-125539] | >50
19 | CCC1=C(C[C@H]2NCCc3cc(OC)c(OC)cc32)C[C@H]2c3cc(OC)c(OC)cc3CCN2C1 [TCMDC-131825] | >83
20 | COc1cc2c(c(Cl)c1OC)CCN(C(=O)C(F)(F)F)CC2c1ccccc1 (centres unmarked) [TCMDC-132071] | >13
21 | c1cc(CNCCN2CCNCC2)cc(-c2cccc(-c3nc4ccccc4[nH]3)c2)c1 [TCMDC-132859] | 27
22 | Fc1ccc2[nH]c(-c3cccc(-c4cccc(CNCCN5CCNCC5)c4)c3)nc2c1 [TCMDC-132860] | 27
23 | Fc1ccc2[nH]c(-c3cccc(-c4ccc(CNCCN5CCNCC5)cc4)c3)nc2c1 [TCMDC-132863] | 17
24 | FC(F)(F)c1ccc2[nH]c(-c3ccc(-c4cccc(CNCCN5CCNCC5)c4)cc3)nc2c1 [TCMDC-132864] | 16

Row | Structure (SMILES) | Ratio IC50 HepG2/IC50 Pf gametocytes
25 | Cc1cccc2nc(-c3ccc(-c4cccc(CNCCN5CCNCC5)c4)cc3)[nH]c12 [TCMDC-132867] | 16
26 | Fc1ccc2[nH]c(-c3ccc(-c4ccc(CNCCN5CCNCC5)cc4)s3)nc2c1 [TCMDC-132869] | >47
27 | FC(F)(F)c1ccc2[nH]c(-c3cccc(-c4ccc(CNCCN5CCNCC5)cc4)c3)nc2c1 [TCMDC-132872] | 15
28 | NC1CCN(Cc2ccc(-c3ccc(-c4nc5cc(F)ccc5[nH]4)cc3)cc2)C1 (centres unmarked) [TCMDC-133872] | 9
29 | c1cc(CN2CCC(CCN3CCCCC3)CC2)cc(-c2cccc(-c3nc4ccccc4[nH]3)c2)c1 [TCMDC-133920] | 45
30 | Cc1n[nH]c2ccc(-c3ccc4nccc(N5CCC(N)CC5)c4c3)cc12 [TCMDC-134315] | 30
31 | CC(C)(C)c1ccc(CN2CCC(CNC(=O)c3cc(-c4cccc(Cl)c4)cs3)C2)cc1 (centres unmarked) [TCMDC-134446] | 19
32 | COc1cccc(Nc2c(C(N)=O)cnc3ccc(-c4ccc([S+](C)[O-])cc4)cc23)c1 (centres unmarked) [TCMDC-135184] | >18
33 | CS(=O)(=O)c1cccc(-c2cnc3[nH]cc(-c4cccc(CCN)c4)c3c2)c1 [TCMDC-136307] | >53
34 | CCn1ncc2c(NC3CCOCC3)c(CNC(=O)c3ccnn3C)c(C)nc21 [TCMDC-136560] | >15
35 | COc1ccc(Nc2nccc(-c3ccc4ccnc(NCCCCN)c4c3)n2)cc1 [TCMDC-136642] | >77
36 | CN(C)CCNC(=O)c1ccc(-c2cnc3ccc(NCc4ccc(Cl)c(Cl)c4)nn23)cc1 [TCMDC-136678] | 50
37 | C/C=C/C=C/C1=NCCc2cc(OCCC)ccc21 [TCMDC-137442] | 25
38 | N=C(NCCCc1ccccc1)c1cccc(C(=N)NCCCc2ccccc2)n1 [TCMDC-137453] | 41
39 | COc1ccc2nc3cc(Cl)ccc3c(NCCN3CCN(C)CC3)c2c1 [TCMDC-137476] | 10
40 | CCCCN1CCN(CCCCNc2c3ccccc3nc3ccccc23)CC1 [TCMDC-137569] | 11
41 | CC1CCCCN1CCCNc1nc(NCc2ccccc2)c2ccccc2n1 (centres unmarked) [TCMDC-137771] | 143
42 | CC(=NNC(=S)NCCc1ccccn1)c1ccccn1 [TCMDC-137895] | >17
43 | COCCCNC(=S)NN=C(C)c1ccccn1 [TCMDC-137907] | 106
44 | CCN(CC)Cc1cc(Nc2c3ccc(Cl)cc3nc3cccc(OC)c23)ccc1O [TCMDC-139222] | >25
45 | COc1ccc(COc2cc(NCCCN)nc3ccccc23)cc1 [TCMDC-139286] | 25
46 | O=c1c(Br)ccccc1Br [TCMDC-142246] | 61
47 | Nc1cc(C=Cc2ccc([N+](=O)[O-])o2)nc2ccccc12 [TCMDC-142295] | 58
